Source: US9393292B2, “Methods for inducing selective apoptosis” (priority 2010, dated 2016)
For at least one compound, name, drawing or mass did not settle the structure.

System: gene-modified allodepleted cells
Assay: Induction of apoptosis with AP20187 in gene-modified allodepleted cells (annexin V/7-AAD)
Assay type: cell-based, human
Details: reactivated cells sorted CD25 positive
Experimental: Suicide gene functionality was assessed by adding a small molecule synthetic homodimerizer, AP20187 (Ariad Pharmaceuticals; Cambridge, Mass.), at 10 nM final concentration the day following CD19 immunomagnetic selection. Cells were stained with annexin V and 7-amino-actinomycin (7-AAD)(BD Pharmingen) at 24 hours and analyzed by flow cytometry. Cells negative for both Annexin V and 7-AAD were considered viable, cells that were annexin V positive were apoptotic, and cells that were both annexin V and 7-AAD positive were necrotic. The percentage killing induced by dimerization was corrected for baseline viability as follows: Percentage killing=100%−(% Viability in AP20187-treated cells÷% Viability in nontreated cells).
Cells were maintained in T cell medium containing 50 U/ml IL-2 until 22 days after transduction. A portion of cells was reactivated on 24-well plates coated with […] OKT3 and 1 μg/ml anti-CD28 (Clone CD28.2, BD Pharmingen, San Jose, Calif.) for 48 to 72 hours. CD19 expression and suicide gene function in both reactivated and non-reactivated cells were measured on day 24 or 25 post transduction.

CC[C@H](C(=O)N1CCCC[C@H]1C(=O)O[C@H](CCc1ccc(OC)c(OC)c1)c1cccc(OCC(=O)NCC(CNC(=O)COc2cccc([C@@H](CCc3ccc(OC)c(OC)c3)OC(=O)[C@@H]3CCCCN3C(=O)[C@@H](CC)c3cc(OC)c(OC)c(OC)c3)c2)CN(C)C)c1)c1cc(OC)c(OC)c(OC)c1 [AP20187]
killing efficiency: about 93%. 2±1.2%
